Results from patent publication US12097260B2, “Temperature-responsive degradable hydrogels” (priority 2017, dated 2024).
For some of these results: For at least one compound, name, drawing or mass did not settle the structure. Some results were stated once for a whole list of compounds, not compound by compound.

Key:
[1] = Effect of comonomers on LCST (slope of LCST vs. mol %); assay type: physicochemical; conditions: comonomer in NIPAAm-based temperature-responsive polymers
From the text: The effect on LCST of a comonomer can be determined by preparing polymers with varying content and evaluating the slope of a line of best fit for the plot of LCST vs. mol % X, where X is the comonomer.

[2] = Stability of hydrophobic comonomers in 95° C. stress conditions, pH 4, titration; assay type: physicochemical; conditions: up to 14 days at 95° C.

SMILES | Effect on LCST [1] | Initial structure retained [2] [%]
C=CC(N)=O [Acrylamide] | +0.4 ° C./mol % | –
C=C(C)C(=O)OCCCC [BMA, butyl methacrylate] | – | ≥ 95
C=CC(=O)OCCCC [Butyl acrylate, butyl acrylate] | – | ≥ 95
C=CC(=O)NC(C)(C)C [Tert-butyl acrylamide, tert-butyl acrylamide] | – | ≥ 95
